Some results were stated once for a whole list of compounds, not compound by compound. For at least one compound, name, drawing or mass did not settle the structure.
What was measured:
male C57BL/6N mouse = assay: Neutral fat absorption inhibitory effect (triglyceride concentration in small intestine lymph fluid after oral fat emulsion); type: in vivo; settings: compound 10 or 30 mg/kg orally with 20% neutral fat emulsion, one hour after administration
mouse DGAT1 = target: T1, mouse DGAT1 (Mus musculus, UniProt Q9Z2A7); assay: DGAT1 inhibitory effect test (microsome fraction, [14C]-oleoyl-CoA, triglyceride radioactivity by TLC); type: biochemical; settings: concentration of the test compound 0.1 μg/ml; mouse DGAT1 microsomes, 23° C., 30 minutes
T1 construct: made in house; host or cells: insect cells (High Five, Sf9, Sf21, etc.), baculovirus expression system (Invitrogen)
T1 sequence (Q9Z2A7 1-498): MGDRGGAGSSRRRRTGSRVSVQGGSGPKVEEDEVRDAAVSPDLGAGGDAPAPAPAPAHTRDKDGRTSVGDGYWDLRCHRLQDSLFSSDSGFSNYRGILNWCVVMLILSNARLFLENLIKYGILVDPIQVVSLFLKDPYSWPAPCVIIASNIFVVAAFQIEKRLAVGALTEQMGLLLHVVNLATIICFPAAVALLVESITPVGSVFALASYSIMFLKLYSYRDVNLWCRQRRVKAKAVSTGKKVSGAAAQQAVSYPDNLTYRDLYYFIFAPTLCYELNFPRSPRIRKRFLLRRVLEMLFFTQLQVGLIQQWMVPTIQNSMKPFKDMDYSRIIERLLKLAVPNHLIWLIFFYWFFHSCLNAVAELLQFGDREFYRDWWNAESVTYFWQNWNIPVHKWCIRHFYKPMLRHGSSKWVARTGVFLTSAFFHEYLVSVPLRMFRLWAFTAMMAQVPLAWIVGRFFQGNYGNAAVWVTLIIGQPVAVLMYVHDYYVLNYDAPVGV
How it was run: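 Inhibition was scored from radiolabelled triglyceride separated by TLC, relative to vehicle and net of a 0-min background. The reaction ran for 30 min at room temperature (23 °C) in Tris-HCl pH 8.0 with MgCl2, BSA and Triton X-100. Substrates were 30 μM [14C]-oleoyl-CoA and 0.5 mM dioleoylglycerol, with mouse DGAT1 microsomes from baculovirus-infected insect cells as enzyme.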

Compound	neutral fat absorption inhibitory effect (decrease in triglyceride concentration in lymph fluid vs control group) (male C57BL/6N mouse) [%]	Inhibitory ratio (mouse DGAT1) [%]
4-{4-[3-(2-ethoxy-phenyl)-ureido]-phenyl}-piperazine-1-carboxylic acid [2-chloro-4-(2-hydroxy-ethoxy)-phenyl]-amide [Example 254]	≥ 60	≥ 50
COc1ccc(C)cc1NC(=O)Nc1ccc(N2CCN(C(=O)Nc3ncccc3C#N)CC2)cc1 [Example 356, 4-{4-[3-(2-methoxy-5-methyl-phenyl)-ureido]-phenyl}-piperazine-1-carboxylic acid(3-cyano-pyridin-2-yl)-amide]	≥ 60	≥ 50
COc1ccc(C)cc1NC(=O)Nc1ccc(N2CCN(C(=O)Nc3ccc(CO)cc3C)CC2)cc1 [Example 381, 4-{4-[3-(2-methoxy-5-methyl-phenyl)-ureido]-phenyl}-piperazine-1-carboxylic acid(4-hydroxymethyl-2-methyl-phenyl)-amide]	≥ 60	≥ 50
COc1ccc(C)cc1NC(=O)Nc1ccc(N2CCN(C(=O)Nc3ccc(CO)cc3Cl)CC2)cc1 [Example 382, 4-{4-[3-(2-methoxy-5-methyl-phenyl)-ureido]-phenyl}-piperazine-1-carboxylic acid(2-chloro-4-hydroxymethyl-phenyl)-amide]	≥ 60	≥ 50
Cc1cccc(Cl)c1NC(=O)N1CCN(c2ccc(NC(=O)Nc3ccccc3F)cn2)CC1 [Example 384, 4-{5-[3-(2-fluoro-phenyl)-ureido]-pyridin-2-yl}-piperazine-1-carboxylic acid(2-chloro-6-methyl-phenyl)-amide]	≥ 60	≥ 50
O=C(Nc1ccc(N2CCN(C(=O)Nc3c(F)cccc3C(F)(F)F)CC2)nc1)Nc1ccccc1F [Example 385, 4-{5-[3-(2-fluoro-phenyl)-ureido]-pyridin-2-yl}-piperazine-1-carboxylic acid(2-fluoro-6-trifluoromethyl-phenyl)-amide]	≥ 60	≥ 50
O=C(Nc1ccc(N2CCN(C(=O)Nc3c(Cl)cccc3Cl)CC2)nc1)Nc1ccccc1F [Example 386, 4-{5-[3-(2-fluoro-phenyl)-ureido]-pyridin-2-yl}-piperazine-1-carboxylic acid(2,6-dichloro-phenyl)-amide]	≥ 60	≥ 50
O=C(Nc1ccc(N2CCN(C(=O)Nc3c(F)cccc3F)CC2)nc1)Nc1ccccc1F [Example 387, 4-{5-[3-(2-fluoro-phenyl)-ureido]-pyridin-2-yl}-piperazine-1-carboxylic acid(2,6-difluoro-phenyl)-amide]	≥ 60	≥ 50
COc1ccc(C)cc1NC(=O)Nc1ccc(N2CCN(C(=O)Nc3cc(OCC(O)CO)ccc3Cl)CC2)cc1 (stereo not drawn) [Example 389, 4-{4-[3-(2-methoxy-5-methyl-phenyl)-ureido]-phenyl}-piperazine-1-carboxylic acid[2-chloro-5-(2,3-dihydroxy-propoxy)-phenyl]-amide]	≥ 60	≥ 50
COc1ccc(C)cc1NC(=O)Nc1ccc(N2CCN(C(=O)Nc3ccc(CCO)cc3C)CC2)cc1 [Example 392, 4-{4-[3-(2-methoxy-5-methyl-phenyl)-ureido]-phenyl}-piperazine-1-carboxylic acid[4-(2-hydroxy-ethyl)-2-methyl-phenyl]-amide]	≥ 60	≥ 50
Cc1cc(CO)ccc1NC(=O)N1CCN(c2ccc(NC(=O)Nc3ccccc3F)cc2)CC1 [Example 398, 4-{4-[3-(2-fluoro-phenyl)-ureido]-phenyl}-piperazine-1-carboxylic acid(4-hydroxymethyl-2-methyl-phenyl)-amide]	≥ 60	≥ 50
COc1ccc(C)cc1NC(=O)Nc1ccc(N2CCN(C(=O)Nc3ccc(NS(C)(=O)=O)cc3Cl)CC2)cc1 [Example 401, 4-{4-[3-(2-methoxy-5-methyl-phenyl)-ureido]-phenyl}-piperazine-1-carboxylic acid(2-chloro-4-methanesulphonylamino-phenyl)-amide]	≥ 60	≥ 50
COc1ccc(C)cc1NC(=O)Nc1ccc(N2CCN(C(=O)Nc3ccc(N(C)C)cc3C(F)(F)F)CC2)cc1 [Example 402, 4-{4-[3-(2-methoxy-5-methyl-phenyl)-ureido]-phenyl}-piperazine-1-carboxylic acid(4-dimethylamino-2-trifluoromethyl-phenyl)-amide]	≥ 60	≥ 50
Cc1cccc(CO)c1NC(=O)N1CCN(c2ccc(NC(=O)Nc3ccccc3F)cc2)CC1 [Example 403, 4-{4-[3-(2-fluoro-phenyl)-ureido]-phenyl}-piperazine-1-carboxylic acid(2-hydroxymethyl-6-methyl-phenyl)-amide]	≥ 60	≥ 50
COc1ccc(C)cc1NC(=O)Nc1ccc(N2CCN(C(=O)Nc3c(Cl)cccc3CO)CC2)cc1 [Example 404, 4-{4-[3-(2-methoxy-5-methyl-phenyl)-ureido]-phenyl}-piperazine-1-carboxylic acid(2-chloro-6-hydroxymethyl-phenyl)-amide]	≥ 60	≥ 50
COc1ccc(C)cc1NC(=O)Nc1ccc(N2CCN(C(=O)Nc3c(CO)cccc3C(F)(F)F)CC2)cc1 [Example 405, 4-{4-[3-(2-methoxy-5-methyl-phenyl)-ureido]-phenyl}-piperazine-1-carboxylic acid(2-hydroxymethyl-6-trifluoromethyl-phenyl)-amide]	≥ 60	≥ 50
COc1ccc(F)cc1NC(=O)Nc1ccc(N2CCN(C(=O)Nc3c(F)cccc3F)CC2)cc1 [Example 407, 4-{4-[3-(5-fluoro-2-methoxy-phenyl)-ureido]-phenyl}-piperazine-1-carboxylic acid(2,6-difluoro-phenyl)-amide]	≥ 60	≥ 50
COc1ccc(C)cc1NC(=O)Nc1ccc(N2CCN(C(=O)Nc3cc(OCCO)ccc3C)CC2)cc1 [Example 408, 4-{4-[3-(2-methoxy-5-methyl-phenyl)-ureido]-phenyl}-piperazine-1-carboxylic acid[5-(2-hydroxy-ethoxy)-2-methyl-phenyl]-amide]	≥ 60	≥ 50
COc1ccccc1NC(=O)Nc1ccc(N2CCN(C(=O)Nc3ncc(F)cc3F)CC2)c(F)c1 [Example 435, 4-{2-fluoro-4-[3-(2-methoxy-phenyl)-ureido]-phenyl}-piperazine-1-carboxylic acid(3,5-difluoro-pyridin-2-yl)-amide]	–	≥ 50
COc1ccccc1NC(=O)Nc1ccc(N2CCN(C(=O)Nc3ncccc3C#N)CC2)c(F)c1 [Example 436, 4-{2-fluoro-4-[3-(2-methoxy-phenyl)-ureido]-phenyl}-piperazine-1-carboxylic acid(3-cyano-pyridin-2-yl)-amide]	–	≥ 50
COc1cc(C)ccc1NC(=O)Nc1ccc(N2CCN(C(=O)Nc3ncc(F)cc3F)CC2)cc1 [Example 437, 4-{4-[3-(2-methoxy-4-methyl-phenyl)-ureido]-phenyl}-piperazine-1-carboxylic acid(3,5-difluoro-pyridin-2-yl)-amide]	–	≥ 50
COc1cc(C)ccc1NC(=O)Nc1ccc(N2CCN(C(=O)Nc3ncccc3C#N)CC2)cc1 [Example 438, 4-{4-[3-(2-methoxy-4-methyl-phenyl)-ureido]-phenyl}-piperazine-1-carboxylic acid(3-cyano-pyridin-2-yl)-amide]	–	≥ 50
COc1ccc(C)cc1NC(=O)Nc1ccc(C2CCN(C(=O)Nc3ncccc3F)CC2)cc1 [Example 445, 4-{4-[3-(2-methoxy-5-methyl-phenyl)-ureido]-phenyl}-piperidine-1-carboxylic acid(3-fluoro-pyridin-2-yl)-amide]	–	≥ 50
O=C(Nc1ccc(N2CCN(C(=O)Nc3ncccc3Cl)CC2)cc1)Nc1cccc2c1OCC2 [Example 446, 4-{4-[3-(2,3-dihydro-benzofuran-7-yl)-ureido]-phenyl}-piperazine-1-carboxylic acid(3-chloro-pyridin-2-yl)-amide]	–	≥ 50
